In paper PMC11304990, “Identification of mitochondrial ATP synthase as the cellular target of Ru-polypyridyl-β-carboline complexes by affinity-based protein profiling” (National Science Review, 2024):

Test system: A549 cells
Test: Mitochondrial proteomics
Assay type: cell-based, human
Details: 10 μM, 12 h

F[P-](F)(F)(F)(F)F.F[P-](F)(F)(F)(F)F.[Ru+2].c1ccc2c(c1)[nH]c1c(-c3ncc[nH]3)nccc12.c1cnc2c(c1)ccc1cccnc12.c1cnc2c(c1)ccc1cccnc12 [Ru5]
DAPs down-regulated: 19
DAPs up-regulated: 1
Differentially accumulated proteins (DAPs), total (|fold change| ≥ 1.8, FDR ≤ 0.01, of 556 proteins): 20
